Measured values as given in article PMC3958890.
These are yes or no findings as the source states them, for the method shown. Some binding calls cover weakened binding; strength is not graded here.

The chains behind the UniProt entries cited, without tags or fusion partners. Residues count along the entry.
UniProt P14211, residues 18-412: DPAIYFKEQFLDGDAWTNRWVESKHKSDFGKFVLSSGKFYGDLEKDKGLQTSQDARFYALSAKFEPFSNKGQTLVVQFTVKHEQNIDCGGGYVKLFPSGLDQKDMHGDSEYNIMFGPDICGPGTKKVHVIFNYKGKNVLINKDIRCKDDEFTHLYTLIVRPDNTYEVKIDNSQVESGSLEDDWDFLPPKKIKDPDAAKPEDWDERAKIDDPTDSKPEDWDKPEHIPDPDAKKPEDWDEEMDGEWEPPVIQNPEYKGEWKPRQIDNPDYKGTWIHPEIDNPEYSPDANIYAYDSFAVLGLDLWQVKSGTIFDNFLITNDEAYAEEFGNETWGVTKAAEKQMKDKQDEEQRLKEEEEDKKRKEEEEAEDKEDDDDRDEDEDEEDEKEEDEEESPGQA

Molecular target: recombinant calreticulin rCRT/18-412 (UniProt P14211)
Experiment: SEC; Sephadex G-75 column 80 x 2 cm; 5 mL of rCRT at 10 mg/mL loaded; eluted with 0.9% NaCl at 20 mL/h; oligomers and monomers fractionated; both purified

binding: binds
Substance: recombinant calreticulin rCRT/18-412 (from UniProt P14211 18-412) (domain or fragment)
